Measured values from the supplement of paper PMC10849652.
Some of the results follow.

Amino acid sequences for entries named in this document (tags omitted). A change or cut given only in a name is not applied to a line headed by its entry.
POU6F1, A0A1C7CYV8, UniProt A0A1C7CYV8, whole entry, looked up: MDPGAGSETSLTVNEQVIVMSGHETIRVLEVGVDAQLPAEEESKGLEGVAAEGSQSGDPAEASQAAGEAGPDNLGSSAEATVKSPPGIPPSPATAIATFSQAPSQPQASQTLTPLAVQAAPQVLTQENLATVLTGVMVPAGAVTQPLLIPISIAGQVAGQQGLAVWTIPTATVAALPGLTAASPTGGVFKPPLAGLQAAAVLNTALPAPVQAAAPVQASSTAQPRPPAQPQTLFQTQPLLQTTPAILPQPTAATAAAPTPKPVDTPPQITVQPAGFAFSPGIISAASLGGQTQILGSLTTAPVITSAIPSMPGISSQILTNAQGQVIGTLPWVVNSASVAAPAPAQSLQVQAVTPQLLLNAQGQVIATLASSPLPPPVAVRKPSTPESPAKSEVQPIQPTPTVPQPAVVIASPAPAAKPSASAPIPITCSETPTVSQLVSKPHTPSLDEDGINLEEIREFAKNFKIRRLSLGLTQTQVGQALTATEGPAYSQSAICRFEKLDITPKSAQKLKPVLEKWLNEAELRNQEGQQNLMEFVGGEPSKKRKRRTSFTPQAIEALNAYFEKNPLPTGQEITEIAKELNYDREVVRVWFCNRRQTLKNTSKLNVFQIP
UniProt Q86V59: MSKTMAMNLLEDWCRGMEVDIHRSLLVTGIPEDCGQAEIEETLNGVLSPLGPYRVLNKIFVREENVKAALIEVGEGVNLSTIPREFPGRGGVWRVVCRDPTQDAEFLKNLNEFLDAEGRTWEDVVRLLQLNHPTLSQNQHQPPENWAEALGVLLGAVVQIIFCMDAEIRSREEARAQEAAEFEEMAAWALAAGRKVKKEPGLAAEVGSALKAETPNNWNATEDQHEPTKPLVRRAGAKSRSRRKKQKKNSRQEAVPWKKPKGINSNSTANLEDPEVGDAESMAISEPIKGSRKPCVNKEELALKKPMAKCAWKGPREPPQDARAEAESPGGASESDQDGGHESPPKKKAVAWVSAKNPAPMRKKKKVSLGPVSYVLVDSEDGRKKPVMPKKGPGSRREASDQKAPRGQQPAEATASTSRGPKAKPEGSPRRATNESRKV
UniProt Q8NBT0: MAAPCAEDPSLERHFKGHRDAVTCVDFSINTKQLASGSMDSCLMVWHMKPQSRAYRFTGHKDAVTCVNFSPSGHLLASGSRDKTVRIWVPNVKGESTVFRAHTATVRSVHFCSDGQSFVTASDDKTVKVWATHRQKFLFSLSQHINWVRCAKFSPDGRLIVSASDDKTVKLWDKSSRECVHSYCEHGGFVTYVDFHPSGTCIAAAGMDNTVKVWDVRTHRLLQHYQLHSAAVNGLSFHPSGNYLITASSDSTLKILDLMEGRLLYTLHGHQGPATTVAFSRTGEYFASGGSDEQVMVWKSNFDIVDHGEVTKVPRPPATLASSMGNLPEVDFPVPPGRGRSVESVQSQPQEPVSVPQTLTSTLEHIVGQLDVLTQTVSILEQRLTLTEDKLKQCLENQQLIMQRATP
UniProt Q8IYS1: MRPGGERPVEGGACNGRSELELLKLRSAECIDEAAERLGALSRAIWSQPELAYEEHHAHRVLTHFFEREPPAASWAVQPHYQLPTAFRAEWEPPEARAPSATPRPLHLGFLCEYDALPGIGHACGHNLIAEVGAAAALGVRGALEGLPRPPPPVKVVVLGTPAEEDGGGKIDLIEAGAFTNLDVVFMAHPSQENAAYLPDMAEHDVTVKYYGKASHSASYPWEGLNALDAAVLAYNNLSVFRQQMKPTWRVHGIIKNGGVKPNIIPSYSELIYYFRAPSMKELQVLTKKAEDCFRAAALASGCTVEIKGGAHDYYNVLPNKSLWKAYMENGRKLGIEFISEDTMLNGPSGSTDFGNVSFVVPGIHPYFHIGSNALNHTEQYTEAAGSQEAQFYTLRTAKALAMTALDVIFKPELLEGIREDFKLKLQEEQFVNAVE
UniProt O00469: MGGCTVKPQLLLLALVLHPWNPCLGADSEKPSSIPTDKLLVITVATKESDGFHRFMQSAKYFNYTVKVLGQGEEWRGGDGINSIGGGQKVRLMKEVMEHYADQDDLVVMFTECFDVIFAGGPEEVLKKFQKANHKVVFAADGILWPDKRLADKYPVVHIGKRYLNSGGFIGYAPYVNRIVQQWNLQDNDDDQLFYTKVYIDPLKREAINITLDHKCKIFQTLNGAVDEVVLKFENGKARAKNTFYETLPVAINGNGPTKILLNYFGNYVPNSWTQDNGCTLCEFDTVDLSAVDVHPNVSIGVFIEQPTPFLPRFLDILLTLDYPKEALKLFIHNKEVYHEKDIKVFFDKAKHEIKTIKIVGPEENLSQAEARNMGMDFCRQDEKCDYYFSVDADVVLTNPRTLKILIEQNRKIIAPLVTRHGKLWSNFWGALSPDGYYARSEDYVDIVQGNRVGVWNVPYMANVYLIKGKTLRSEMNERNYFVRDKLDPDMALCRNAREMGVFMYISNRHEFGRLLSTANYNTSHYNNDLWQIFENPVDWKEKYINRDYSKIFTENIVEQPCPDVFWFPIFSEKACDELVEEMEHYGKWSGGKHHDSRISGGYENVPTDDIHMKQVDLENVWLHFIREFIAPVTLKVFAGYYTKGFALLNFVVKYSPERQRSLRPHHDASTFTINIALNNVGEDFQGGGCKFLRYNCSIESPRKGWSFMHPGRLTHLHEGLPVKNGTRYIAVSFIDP
UniProt Q8TC44: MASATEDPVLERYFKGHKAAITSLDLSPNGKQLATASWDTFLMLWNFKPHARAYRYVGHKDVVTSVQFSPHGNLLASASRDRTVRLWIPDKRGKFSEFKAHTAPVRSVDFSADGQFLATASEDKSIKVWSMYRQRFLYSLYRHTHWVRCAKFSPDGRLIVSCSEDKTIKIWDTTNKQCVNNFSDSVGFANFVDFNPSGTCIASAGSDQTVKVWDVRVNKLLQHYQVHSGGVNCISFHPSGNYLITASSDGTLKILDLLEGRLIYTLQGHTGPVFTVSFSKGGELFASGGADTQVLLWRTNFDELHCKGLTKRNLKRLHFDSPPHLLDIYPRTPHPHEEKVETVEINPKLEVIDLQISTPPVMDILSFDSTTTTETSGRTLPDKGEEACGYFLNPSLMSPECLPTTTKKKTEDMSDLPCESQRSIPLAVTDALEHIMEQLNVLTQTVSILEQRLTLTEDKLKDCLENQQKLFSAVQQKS
UniProt Q9NW61: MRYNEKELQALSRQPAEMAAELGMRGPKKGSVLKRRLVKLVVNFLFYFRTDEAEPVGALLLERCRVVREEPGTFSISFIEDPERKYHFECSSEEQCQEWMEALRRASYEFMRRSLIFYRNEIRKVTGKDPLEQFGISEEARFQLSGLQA
UniProt P11086: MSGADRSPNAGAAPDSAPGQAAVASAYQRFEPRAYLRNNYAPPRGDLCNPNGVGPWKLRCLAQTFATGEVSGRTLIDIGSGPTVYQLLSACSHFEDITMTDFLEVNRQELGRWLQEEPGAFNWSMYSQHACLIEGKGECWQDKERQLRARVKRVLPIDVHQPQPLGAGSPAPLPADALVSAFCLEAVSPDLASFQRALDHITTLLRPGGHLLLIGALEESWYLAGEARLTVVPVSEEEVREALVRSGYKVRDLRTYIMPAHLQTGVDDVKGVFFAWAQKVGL
UniProt Q68D20: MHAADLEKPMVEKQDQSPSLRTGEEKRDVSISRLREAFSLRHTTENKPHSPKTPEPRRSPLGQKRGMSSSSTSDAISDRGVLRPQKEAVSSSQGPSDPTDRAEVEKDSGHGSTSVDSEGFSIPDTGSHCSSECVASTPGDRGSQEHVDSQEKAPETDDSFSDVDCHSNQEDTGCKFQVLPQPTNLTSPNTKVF
UniProt Q9UNA4: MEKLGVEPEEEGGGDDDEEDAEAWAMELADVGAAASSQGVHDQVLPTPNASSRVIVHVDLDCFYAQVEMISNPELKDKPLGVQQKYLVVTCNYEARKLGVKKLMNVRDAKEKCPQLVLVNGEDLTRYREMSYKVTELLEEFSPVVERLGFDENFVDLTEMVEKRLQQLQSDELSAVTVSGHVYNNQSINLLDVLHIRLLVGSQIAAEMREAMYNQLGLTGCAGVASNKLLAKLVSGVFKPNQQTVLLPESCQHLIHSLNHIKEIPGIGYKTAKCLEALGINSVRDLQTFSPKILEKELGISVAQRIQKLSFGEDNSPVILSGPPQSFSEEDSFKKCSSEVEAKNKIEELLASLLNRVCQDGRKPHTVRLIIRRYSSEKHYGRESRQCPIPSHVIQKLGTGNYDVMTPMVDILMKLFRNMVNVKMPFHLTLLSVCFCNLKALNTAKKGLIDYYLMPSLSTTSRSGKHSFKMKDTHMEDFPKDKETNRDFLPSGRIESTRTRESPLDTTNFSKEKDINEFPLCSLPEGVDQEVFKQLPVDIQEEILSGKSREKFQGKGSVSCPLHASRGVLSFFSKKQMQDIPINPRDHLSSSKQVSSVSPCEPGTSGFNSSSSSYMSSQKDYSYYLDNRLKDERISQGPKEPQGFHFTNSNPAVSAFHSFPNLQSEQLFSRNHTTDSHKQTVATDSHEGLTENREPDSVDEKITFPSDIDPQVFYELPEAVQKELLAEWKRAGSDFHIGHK
UniProt Q8NEY8: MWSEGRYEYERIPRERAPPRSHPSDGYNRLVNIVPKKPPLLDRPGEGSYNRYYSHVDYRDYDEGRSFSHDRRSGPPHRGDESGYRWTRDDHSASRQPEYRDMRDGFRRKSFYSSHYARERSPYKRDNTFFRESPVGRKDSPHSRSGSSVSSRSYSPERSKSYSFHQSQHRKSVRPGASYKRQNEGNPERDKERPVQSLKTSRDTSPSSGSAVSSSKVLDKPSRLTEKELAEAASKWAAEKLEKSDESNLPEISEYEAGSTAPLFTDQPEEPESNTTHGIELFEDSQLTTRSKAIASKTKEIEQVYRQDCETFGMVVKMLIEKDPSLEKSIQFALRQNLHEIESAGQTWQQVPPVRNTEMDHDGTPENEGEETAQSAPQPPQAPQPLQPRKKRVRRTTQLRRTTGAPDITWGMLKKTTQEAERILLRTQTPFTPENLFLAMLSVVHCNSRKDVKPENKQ
UniProt Q9H237: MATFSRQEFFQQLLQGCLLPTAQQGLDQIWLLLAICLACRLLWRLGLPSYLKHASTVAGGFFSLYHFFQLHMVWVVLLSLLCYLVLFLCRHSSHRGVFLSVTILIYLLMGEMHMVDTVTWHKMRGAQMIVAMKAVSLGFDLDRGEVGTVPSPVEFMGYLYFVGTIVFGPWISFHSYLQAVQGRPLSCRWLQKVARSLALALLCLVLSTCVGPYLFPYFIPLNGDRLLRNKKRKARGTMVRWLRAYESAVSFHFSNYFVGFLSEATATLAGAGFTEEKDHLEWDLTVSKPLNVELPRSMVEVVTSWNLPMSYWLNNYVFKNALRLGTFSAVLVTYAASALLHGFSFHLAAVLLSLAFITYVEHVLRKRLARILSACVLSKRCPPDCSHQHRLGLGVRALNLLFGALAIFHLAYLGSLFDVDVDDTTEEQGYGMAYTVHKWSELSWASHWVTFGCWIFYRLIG
UniProt Q58EX7: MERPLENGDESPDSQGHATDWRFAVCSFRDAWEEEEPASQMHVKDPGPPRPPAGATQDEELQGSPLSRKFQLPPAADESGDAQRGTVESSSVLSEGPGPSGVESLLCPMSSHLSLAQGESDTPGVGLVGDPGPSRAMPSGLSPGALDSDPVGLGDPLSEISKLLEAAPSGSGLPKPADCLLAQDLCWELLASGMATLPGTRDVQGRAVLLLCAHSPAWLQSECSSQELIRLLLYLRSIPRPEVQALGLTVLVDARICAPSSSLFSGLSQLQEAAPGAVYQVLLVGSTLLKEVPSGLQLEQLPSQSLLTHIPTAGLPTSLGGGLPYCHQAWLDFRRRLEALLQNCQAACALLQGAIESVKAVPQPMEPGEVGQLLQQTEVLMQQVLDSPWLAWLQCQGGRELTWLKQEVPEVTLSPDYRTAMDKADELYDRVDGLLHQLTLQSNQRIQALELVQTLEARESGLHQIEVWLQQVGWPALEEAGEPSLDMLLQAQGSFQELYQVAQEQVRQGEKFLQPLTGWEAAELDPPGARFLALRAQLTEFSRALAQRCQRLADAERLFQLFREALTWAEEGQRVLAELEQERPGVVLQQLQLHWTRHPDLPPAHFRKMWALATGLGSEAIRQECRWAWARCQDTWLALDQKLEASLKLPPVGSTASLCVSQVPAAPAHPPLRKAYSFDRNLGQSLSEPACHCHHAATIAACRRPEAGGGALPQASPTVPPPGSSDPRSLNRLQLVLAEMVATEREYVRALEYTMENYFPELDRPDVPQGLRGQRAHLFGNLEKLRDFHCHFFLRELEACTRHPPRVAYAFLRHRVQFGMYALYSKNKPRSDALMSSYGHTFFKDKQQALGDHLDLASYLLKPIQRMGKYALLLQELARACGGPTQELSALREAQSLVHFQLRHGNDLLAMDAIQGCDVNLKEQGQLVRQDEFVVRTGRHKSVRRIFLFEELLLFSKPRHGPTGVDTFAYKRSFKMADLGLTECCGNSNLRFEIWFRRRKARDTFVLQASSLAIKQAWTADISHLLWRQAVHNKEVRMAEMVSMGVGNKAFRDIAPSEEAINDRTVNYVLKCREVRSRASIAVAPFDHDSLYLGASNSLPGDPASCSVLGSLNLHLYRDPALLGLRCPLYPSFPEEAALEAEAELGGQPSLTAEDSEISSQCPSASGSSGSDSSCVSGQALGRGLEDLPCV

Tests used:
Assay in all cases: log2 fold change, soluble protein after heating vs DMSO (PISA); higher = thermal stabilisation; K562 lysate, 10 uM; active = over 0.2 and 3.5 SD of the protein, either way, in both replicates (recomputed)
[1] = compound: C1=CC=C(C=C1)C2=NC(=C(N2)C3=CC=NC=C3)C4=CC(=C(C=C4)Cl)O
Outline: (§1)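 K562 pellets were dounce-homogenised in PBS pH 7.4 containing 1 mM MgCl2, and the crude extract, at 1 mg/mL protein, was exposed to 10 μM compound for 30 min. Aliquots were heated for 3 min across 48°C-58°C, pooled, brought to 0.5% NP-40 at 4°C and spun at 21,000xg for 90 min, with the supernatant taken as soluble protein. TMTpro 16plex LC-MS/MS with equalised channel sums quantified that protein. Values are log-two fold changes in thermal stability relative to solvent controls, taken from duplicates.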

IRAK-1-4 Inhibitor I = compound: C1COCCN1CCN2C3=CC=CC=C3N=C2NC(=O)C4=CC(=CC=C4)[N+](=O)[O-] [IRAK-1-4 Inhibitor I]
Outline: as §1

ralimetinib = compound: CC(C)(C)Cn1c(N)nc2ccc(-c3[nH]c(C(C)(C)C)nc3-c3ccc(F)cc3)nc21 [ralimetinib]
Outline: as §1

[2] = compound: CC(C)(O)CC(=O)NCCn1ccc2ncnc(Nc3ccc(Oc4cccc(C(F)(F)F)c4)c(Cl)c3)c21
Outline: as §1

[3] = compound: CC1=C(C=C(C=C1)NC(=O)C2=CC(=CC=C2)N(C)C)NC(=O)C3=CC=C(C=C3)O
Outline: as §1

erlotinib = compound: C#Cc1cccc(Nc2ncnc3cc(OCCOC)c(OCCOC)cc23)c1 [erlotinib]
Outline: as §1

[4] = compound: C/C(=N\NC(=O)C1=CC(=CC=C1)S(=O)(=O)N2CCOCC2)/C3=C(C=CC(=C3)Cl)O
Outline: as §1

[5] = compound: C1=CC(=CC=C1C2=NC3=C(N2)C=C(C=C3)C(=O)N)OC4=CC=C(C=C4)Cl
Outline: as §1

[6] = compound: C1=CC2=C(C=CC(=C2)/C=C\3/C(=O)NC(=NCC4=CC=CS4)S3)N=C1
Outline: as §1

[7] = compound: C1=CC=C2C(=C1)C3=NNC4=CC=CC(=C43)C2=O
Outline: as §1

[8] = compound: C1CCN(C1)C(=O)NC2=CC=CC(=C2)NC3=NC=C(C(=N3)NCCC4=CN=CN4)Br
Outline: as §1

[9] = compound: C1CN(CCC1(CC2=CC=C(C=C2)Cl)N)C3=NC=NC4=C3C=CN4
Outline: as §1

[10] = compound: CC(C)C1=C2N=C(C=C(N2N=C1)NCC3=CC=CC=C3)NCCCCCCN
Outline: as §1

[11] = compound: CC1=C(C=C(C=C1)NC(=O)C2=CC(=CC=C2)C(C)(C)C#N)NC3=CC4=C(C=C3)N=CN(C4=O)C
Outline: as §1

[12] = compound: CC(=O)c1cnc2ccc(-c3cc(Cl)c(O)c(Cl)c3)nc2c1N[C@H]1CC[C@H](CN(C)C)CC1
Outline: as §1

[13] = compound: CC1=C(C2=C(C=C1)C(=O)C3=CC=CC=C3N2CCCN)C
Outline: as §1

[14] = compound: CC1=CC=C(C=C1)SC2=C3C=C(SC3=CN=C2)C(=O)N
Outline: as §1

[15] = compound: C1=CC2=NC=CN=C2C=C1/C=C/3\C(=O)NC(=O)S3
Outline: as §1

ibrutinib = compound: C=CC(=O)N1CCC[C@@H](n2nc(-c3ccc(Oc4ccccc4)cc3)c3c(N)ncnc32)C1 [ibrutinib]
Outline: as §1

[16] = compound: CC1=C(C(CC(=O)N1)C2=CC=C(C=C2)C(F)(F)F)C(=O)NC3=C(C=C4C(=C3)C=NN4)F
Outline: as §1

Measured: log2 fold change

POU6F1, A0A1C7CYV8
inactive: [1] 0.188 | IRAK-1-4 Inhibitor I -0.021 | ralimetinib -0.131 | [2] 0.182 | [3] 0

PLEKHM1 (UniProt Q9Y4G2)
inactive: erlotinib 0.055 | [4] 0.01 | [5] 0.025 | [6] -0.089 | [1] -0.084 | [7] -0.107 | [8] -0.033 | [9] 0.04 | IRAK-1-4 Inhibitor I 0.033 | ralimetinib -0.003 | [2] -0.011 | [10] 0.053 | [11] 0.046 | [3] -0.088

PPFIBP2 (UniProt Q8ND30)
inactive: [8] -0.118 | [9] 0.328

POMT1 (UniProt Q9Y6A1)
inactive: [12] 0.067 | [13] -0.164 | [14] 0.191

PNMA8A (UniProt Q86V59)
inactive: erlotinib -0.049 | [5] -0.102 | [15] -0.053 | [1] 0.015 | [8] 0.129 | [9] 0.005 | IRAK-1-4 Inhibitor I 0.08 | ibrutinib 0.033 | [12] -0.061 | ralimetinib 0.147 | [2] -0.135 | [10] -0.123 | [16] 0.033 | [13] -0.078 | [3] 0.091 | [14] -0.021

POC1A (UniProt Q8NBT0)
inactive: [4] 0.022 | [6] 0.124 | [7] -0.038 | [8] 0.017 | [9] -0.059 | [12] 0.146 | [16] -0.039 | [11] -0.111 | [14] -0.051

POM121C (UniProt A8CG34)
inactive: erlotinib 0.001 | [5] 0.027 | [15] 0.032 | [1] -0.064 | IRAK-1-4 Inhibitor I -0.069 | ibrutinib -0.167 | [12] 0.008 | ralimetinib -0.127 | [2] 0.016 | [10] 0.028 | [3] -0.028 | [14] 0.034

PM20D2 (UniProt Q8IYS1)
inactive: [4] -0.049 | [6] 0.06 | [15] -0.006 | [1] 0.206 | [7] 0.047 | [8] 0.133 | [9] -0.128 | IRAK-1-4 Inhibitor I -0.01 | ibrutinib -0.062 | [12] 0.089 | ralimetinib -0.234 | [2] 0.153 | [3] -0.135 | [14] -0.025

POLR2K (UniProt P53803)
inactive: [4] -0.215 | [6] 0.025 | [15] -0.013 | [1] -0.058 | [7] 0.144 | [8] 0.094 | [9] -0.043 | IRAK-1-4 Inhibitor I 0.065 | ibrutinib -0.044 | ralimetinib 0.026 | [2] -0.114 | [13] 0.044 | [11] -0.122 | [3] 0.018

Taken from above (8 entries):
PLEKHM1 (UniProt Q9Y4G2)
inactive: erlotinib 0.055 | [4] 0.01 | [5] 0.025 | [6] -0.089 | [1] -0.084 | [7] -0.107 | [8] -0.033 | [9] 0.04 | IRAK-1-4 Inhibitor I 0.033 | ralimetinib -0.003 | [2] -0.011 | [10] 0.053 | [11] 0.046 | [3] -0.088

PPFIBP2 (UniProt Q8ND30)
inactive: [8] -0.118 | [9] 0.328

POMT1 (UniProt Q9Y6A1)
inactive: [12] 0.067 | [13] -0.164 | [14] 0.191

PNMA8A (UniProt Q86V59)
inactive: erlotinib -0.049 | [5] -0.102 | [15] -0.053 | [1] 0.015 | [8] 0.129 | [9] 0.005 | IRAK-1-4 Inhibitor I 0.08 | ibrutinib 0.033 | [12] -0.061 | ralimetinib 0.147 | [2] -0.135 | [10] -0.123 | [16] 0.033 | [13] -0.078 | [3] 0.091 | [14] -0.021

POC1A (UniProt Q8NBT0)
inactive: [4] 0.022 | [6] 0.124 | [7] -0.038 | [8] 0.017 | [9] -0.059 | [12] 0.146 | [16] -0.039 | [11] -0.111 | [14] -0.051

POM121C (UniProt A8CG34)
inactive: erlotinib 0.001 | [5] 0.027 | [15] 0.032 | [1] -0.064 | IRAK-1-4 Inhibitor I -0.069 | ibrutinib -0.167 | [12] 0.008 | ralimetinib -0.127 | [2] 0.016 | [10] 0.028 | [3] -0.028 | [14] 0.034

PM20D2 (UniProt Q8IYS1)
inactive: [4] -0.049 | [6] 0.06 | [15] -0.006 | [1] 0.206 | [7] 0.047 | [8] 0.133 | [9] -0.128 | IRAK-1-4 Inhibitor I -0.01 | ibrutinib -0.062 | [12] 0.089 | ralimetinib -0.234 | [2] 0.153 | [3] -0.135 | [14] -0.025

POLR2K (UniProt P53803)
inactive: [4] -0.215 | [6] 0.025 | [15] -0.013 | [1] -0.058 | [7] 0.144 | [8] 0.094 | [9] -0.043 | IRAK-1-4 Inhibitor I 0.065 | ibrutinib -0.044 | ralimetinib 0.026 | [2] -0.114 | [13] 0.044 | [11] -0.122 | [3] 0.018

Additional records follow:

PLOD2 isoform 2 (UniProt O00469)
inactive: [4] -0.254 | [6] 0.091 | [15] -0.188 | [7] 0.102 | [8] 0.268 | [9] -0.068 | ibrutinib -0.07 | [13] -0.005

PLEKHH2 (UniProt E5RGK1)
inactive: [4] 0.091 | [6] 0.021 | [7] -0.072 | [8] 0.274 | [9] -0.083 | [12] -0.025 | [13] -0.086 | [11] 0.014 | [14] 0.036

POC1B (UniProt Q8TC44)
inactive: erlotinib -0.066 | [4] -0.038 | [5] -0.146 | [6] 0.192 | [1] 0 | [7] -0.436 | [8] -0.045 | [9] 0.182 | IRAK-1-4 Inhibitor I 0.032 | ralimetinib 0.064 | [2] 0.073 | [10] 0.017 | [13] -0.054 | [3] -0.036

POLR2F (UniProt U3KPV3)
inactive: [8] -0.055 | [9] 0.084 | [13] 0.223

PLEKHJ1 (UniProt Q9NW61)
inactive: erlotinib 0.03 | [5] 0.009 | [1] -0.009 | IRAK-1-4 Inhibitor I -0.015 | ralimetinib -0.003 | [2] -0.001 | [10] 0.017 | [11] 0.004 | [3] -0.02

POGZ (UniProt Q7Z3K3)
inactive: [4] 0.016 | [6] 0.013 | [1] 0.043 | [7] -0.076 | [8] -0.015 | [9] 0.02 | IRAK-1-4 Inhibitor I 0.056 | [12] -0.165 | ralimetinib -0.013 | [2] -0.039 | [16] -0.071 | [13] -0.096 | [11] -0.051 | [3] -0.109 | [14] -0.022

POLK (UniProt Q9UBT6)
inactive: [15] -0.068 | ibrutinib 0.085 | [12] 0.107 | [16] -0.096 | [14] -0.15

PML isoform 11 (UniProt P29590)
inactive: [4] 0.048 | [6] -0.056 | [7] 0.026 | [8] 0.084 | [9] -0.053 | [13] 0.03

PNMT (UniProt P11086)
inactive: erlotinib 0.035 | [4] -0.178 | [5] 0.009 | [6] -0.041 | [1] -0.098 | [7] -0.219 | IRAK-1-4 Inhibitor I 0.094 | [12] 0.076 | ralimetinib -0.143 | [2] -0.243 | [10] 0.007 | [11] 0.079 | [3] 0.357 | [14] 0.021

PMS2CL (UniProt Q68D20)
inactive: [15] 0.101 | [1] -0.041 | IRAK-1-4 Inhibitor I 0.054 | ibrutinib 0.127 | [12] -0.007 | ralimetinib -0.028 | [2] -0.066 | [11] -0.071 | [3] 0.015 | [14] -0.034

POLI (UniProt Q9UNA4)
inactive: [16] 0.158 | [11] 0.108

PPHLN1 (UniProt Q8NEY8)
inactive: erlotinib -0.034 | [4] -0.237 | [5] -0.096 | [6] 0.003 | [7] -0.001 | [8] -0.062 | [9] -0.007 | [12] -0.046 | [10] 0.092 | [16] -0.034 | [11] 0.009 | [14] -0.017

PLPP6 (UniProt Q8IY26)
inactive: erlotinib 0.036 | [4] 0.204 | [5] -0.066 | [6] -0.017 | [1] -0.096 | [7] -0.082 | IRAK-1-4 Inhibitor I 0.044 | ralimetinib 0.026 | [2] 0.006 | [10] 0.021 | [16] 0.041 | [13] -0.062 | [11] 0.149 | [3] 0.027

PORCN (UniProt Q9H237)
inactive: [16] -0.227

POF1B isoform 1 (UniProt Q8WVV4)
inactive: [13] 0.225

PLEKHG4 (UniProt Q58EX7)
inactive: [4] 0.121 | [6] 0.016 | [1] 0.113 | [7] 0.021 | [8] 0.039 | [9] -0.075 | IRAK-1-4 Inhibitor I -0.014 | ralimetinib -0.009 | [2] -0.018 | [16] -0.105 | [13] -0.012 | [11] -0.027 | [3] 0.016

PLXND1 (UniProt Q9Y4D7)
inactive: erlotinib -0.067 | [5] 0.073 | [15] -0.048 | [1] -0.016 | IRAK-1-4 Inhibitor I -0.032 | ibrutinib 0.138 | ralimetinib -0.081 | [2] -0.07 | [10] 0.046 | [16] -0.023 | [13] 0.112 | [11] -0.033 | [3] 0.218

PLXNB1 (UniProt O43157)
inactive: erlotinib -0.007 | [5] 0.145 | [1] -0.014 | IRAK-1-4 Inhibitor I 0.108 | ralimetinib -0.01 | [2] -0.16 | [10] -0.241 | [16] -0.048 | [13] -0.104 | [11] 0.011 | [3] -0.002

PPFIBP1 (UniProt Q86W92)
inactive: [8] 0.12 | [9] -0.116 | [11] -0.123

POTEKP (UniProt Q9BYX7)
inactive: erlotinib 1.53 | [5] -0.508 | [15] 1.2 | [1] 1.96 | IRAK-1-4 Inhibitor I 1.22 | ibrutinib 0.177 | [12] 1.04 | ralimetinib 0.212 | [2] -0.143 | [10] -0.19 | [16] -0.08 | [13] -0.247 | [11] 1.79 | [3] -0.322 | [14] -0.077
